According to the supplement of paper PMC12823440, “Inhibitors supercharge kinase turnover through native proteolytic circuits” (Nature, 2025):
The list shows a part of the results. Hit calls seldom repeat between salt and free forms of one compound.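 In K562 cells expressing nanoluciferase-fused kinases, luminescence was recorded at 4 h intervals between 2 and 18 h, normalized as percent of control with DMSO at 100% and a positive control at 0%. A significant (2 sigma) signal drop marks a time point as decreased. The authors' rule for a hit is not shown and takes in more than the number of time points.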

Amino acid sequences for entries named in this document (tags omitted). A change or cut given only in a name is not applied to a line headed by its entry.
UniProt Q00526: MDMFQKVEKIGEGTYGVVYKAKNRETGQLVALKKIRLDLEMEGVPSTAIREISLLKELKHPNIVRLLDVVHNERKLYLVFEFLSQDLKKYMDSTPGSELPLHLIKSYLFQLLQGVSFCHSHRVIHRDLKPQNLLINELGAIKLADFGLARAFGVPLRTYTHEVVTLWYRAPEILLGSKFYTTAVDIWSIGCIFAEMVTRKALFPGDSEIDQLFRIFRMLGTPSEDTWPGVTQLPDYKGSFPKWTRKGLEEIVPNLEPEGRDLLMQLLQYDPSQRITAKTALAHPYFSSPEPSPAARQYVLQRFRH

These molecules were tested against CDK3 (UniProt Q00526) (assay: kinase-Nluc reporter destabilization hit call (1 = scored as downregulated) (binary); higher = compound decreases kinase abundance). Conditions: K562; 2-18 h.

kinase-Nluc reporter destabilization hit call, inactive:
CC(C)CCN1c2nc(Nc3cc(F)c(O)c(F)c3)ncc2N(C)C(=O)C1C (configuration not stated) (2.5 µM) 0, CC(C)=CC[C@@H](O)C1=CC(=O)c2c(O)ccc(O)c2C1=O [Shikonin] (10 µM) 0, CCC(=O)Nc1cccc(Oc2nc(Nc3ccc(N4CCN(C)CC4)cc3OC)ncc2Cl)c1 (10 µM) 0, CC(C)=CCC/C(C)=C/CC/C(C)=C/C=C/C(C)=C/C(=O)O [Peretinoin] (10 µM) 0, COc1ccc2c(Oc3ccc4c(C(=O)Nc5ccccc5N)cccc4c3)ccnc2c1 [Chiauranib] (10 µM) 0, Cc1nn(C)cc1-c1nc2c(N3CCN(Cc4ccc(Cl)cc4)CC3)c(Cl)cnc2[nH]1 (10 µM) 0, CNC(=O)c1cc2c(Oc3ccc(NC(=O)C4(C(=O)Nc5ccc(F)cc5)CC4)cc3)ccnc2cc1OC (2.5 µM) 0, O=C(Nc1cccnc1)c1cc(-c2ccnc(F)c2)ccc1OCc1ccccc1 (10 µM) 0, CN(C)c1ccc(-c2nc3ncc(Cl)c(N4CCN(CC(=O)Nc5nccs5)CC4)c3[nH]2)cc1 (2 µM) 0, Cc1cc(C(=O)NC(C)(C)C)cc(C#Cc2ccc3c4c(oc3c2)C(C)(C)c2cc(NS(C)(=O)=O)ccc2C4=O)n1 (10 µM) 0, O=C(O)c1cc(N(Cc2ccccc2O)Cc2cc(O)ccc2O)ccc1O [Lavendustin A] (10 µM) 0, C[C@@H](Nc1ncnc2[nH]c(-c3ccc(O)cc3)cc12)c1ccccc1 (2.5 µM) 0
